# This is one part of the list. The main result of the screen is listed elsewhere. These columns were measured beside it and carry no call. The list favours compounds with an active or inconclusive main result. Words in brackets tell the shape of the fitted curve; partial curves, single points and poor fits give uncertain potencies.
# Test: IkB Signaling
# Conditions: ABC-DLBCL IkBa-CBG/CBR dual luciferase ratio (green luciferase fused to IkBa over red control in OCI-Ly3 lymphoma cells), 4 h
# How it was run: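 Luminescence ratio of IκBα-fused green versus native red beetle luciferase in OCI-Ly3 cells, 4 h post-doxycycline with compound; red signal alone, scaled from basal (0%) to zero light (-100%), flagged nonspecific or cytotoxic effects.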
# [1] = measured here: control luc red channel unless noted
# [2] = measured here: IkB-luc green channel
# [3] = measured here: control luc red channel
smiles,measurement,setting,value
Cc1cccc(N(C)C(=O)C2CCC(CNS(=O)(=O)c3cccc4nsnc34)CC2)c1 (centres undefined),AC50,[1],"20 µM [falling, single point]"
c1ccc2[nH]c(CN3CCCCCC3)nc2c1,AC50,[1],"31.6 µM [falling, single point]"
O=c1c2c3c(sc2nnn1CCCCOc1ccc(Cl)cc1)CCCC3,AC50,[1],"15.8 µM [falling, single point]"
Cc1ccccc1CNc1nc(N)n(-c2ccccc2)n1,AC50,[1],"7.94 µM [falling, partial curve]"
COC(=O)c1ccc(CSc2nc3ccccc3c(=O)n2Cc2ccco2)o1,AC50,[1],"25.1 µM [falling, partial curve]"
N#C/C(=C/c1ccc(O)cc1)c1nc(-c2ccc(-c3ccccc3)cc2)cs1,AC50,[1],"6.31 µM [falling, partial curve]"
O=C(CCCc1nc(-c2ccc(Cl)cc2)no1)NCc1ccco1,AC50,[1],"10 µM [falling, partial curve]"
CCN(CC)c1cc(NC2CCCCC2)c2c3c(onc13)-c1ccccc1C2=O,AC50,[1],"3.98 µM [falling, single point]"
Cc1ccccc1CN1C(=O)C(O)(c2c[nH]c3ccccc23)c2cc(Cl)ccc21 (centres undefined),AC50,[1],"25.1 µM [falling, partial curve]"
O=C(c1ccc2c(c1)N(Cc1ccccc1)C(=O)c1ccccc1S2(=O)=O)N1CCC(Cc2ccccc2)CC1,AC50,[1],"10 µM [falling, partial curve]"
CCCCN1C(C(=O)c2ccccc2)=C(OC(=O)CC)c2ccccc2S1(=O)=O,AC50,[1],"3.98 µM [falling, full curve]"
CC1CCN(c2nc3ccccc3nc2SCC(=O)Nc2ccccc2C(C)C)CC1,AC50,[1],"25.1 µM [falling, partial curve, poor fit]"
CCCN1CCN(c2ncnc3sc(C(=O)Nc4ccc(OC(F)(F)F)cc4)c(C)c23)CC1,AC50,[1],"39.8 µM [falling, partial curve, poor fit]"
CCOc1ccc(C(=O)c2cn(CC(=O)Nc3ccc(C)c(Cl)c3)c3ccc(OCC)cc3c2=O)cc1,AC50,[1],"2.51 µM [falling, partial curve, poor fit]"
CCCCC(=O)OCc1cc(=O)n2nc(C3CC3)sc2n1,AC50,[1],"12.6 µM [rising, partial curve]"
O=C(NC1(C(F)(F)F)N=C(c2ccccc2)N(Cc2ccccc2)C1=O)c1ccc(F)cc1 (centres undefined),AC50,[1],"39.8 µM [falling, single point]"
O=C(Nc1nc(-c2ccncc2)cs1)C1COc2ccccc2O1 (centres undefined),AC50,[1],"39.8 µM [falling, single point]"
CCOc1ccc(CCNC(=O)c2cc3n(n2)CCCN(Cc2ccc(C)cc2)C3=O)cc1OCC,AC50,[1],"1 µM [rising, partial curve]"
Cc1cc(-c2ccc(C)c(S(=O)(=O)Nc3ccc(C)c(N(C)C)c3)c2)on1,AC50,[1],"39.8 µM [falling, single point]"
COc1ccc2cc3c(N)c(C(=O)N4CCCC4)sc3nc2c1,AC50,[1],"31.6 µM [falling, partial curve]"
C=CCn1c(-c2ccc(Cl)cc2)c[nH]c1=S,AC50,[1],"0.501 µM [falling, full curve]"
COc1ccc(-c2nc(SCC(=O)NCC3CCCO3)c(-c3ccc(C)cc3)[nH]2)cc1OC (centres undefined),AC50,[1],"7.94 µM [falling, partial curve]"
COc1cc(/C=N/n2cnnc2)ccc1OC(=O)c1cccnc1,AC50,[1],"10 µM [falling, partial curve]"
CC(C)(CO)Cc1cc(C(C)(C)C)c(O)c(C(C)(C)C)c1,AC50,[2],"7.94 µM [rising, partial curve]"
same,AC50,[3],"39.8 µM [falling, single point]"
Cc1ccc(N(C)S(=O)(=O)c2nnc(NC(=O)c3ccco3)s2)cc1,AC50,[1],"7.94 µM [falling, full curve, poor fit]"
CCCC(c1nnnn1Cc1ccccc1)N1CCN(c2ccccc2OC)CC1 (centres undefined),AC50,[1],"31.6 µM [falling, single point]"
Cc1cccc(NC(=O)COc2ccc(Br)cc2)n1,AC50,[1],"12.6 µM [falling, partial curve]"
COc1ccc(CNC(=O)C2CCN(C(=O)N3CCOc4ccc(C)cc43)CC2)cc1,AC50,[1],"25.1 µM [falling, single point]"
C=C(C)COc1ccc(-c2[nH]ncc2-c2ccc(OC)c(OC)c2)c(O)c1,AC50,[1],"12.6 µM [falling, partial curve]"
O=C(NCc1ccc(Cl)cc1)c1cc2cccc3c2n1CCS3,AC50,[1],"12.6 µM [falling, partial curve]"
CC1CCCN(C(=O)c2ccc(CSc3nc4ccncc4n3Cc3ccccc3)cc2)C1 (centres undefined),AC50,[1],"20 µM [falling, single point]"
O=C(O)CCc1ccc(-c2ccc(F)cc2)n1Cc1ccco1,AC50,[1],"25.1 µM [falling, partial curve]"
Cc1cccc(NC(=O)Cn2c(=O)n(Cc3nc(-c4ccccc4)no3)c(=O)c3ccccc32)c1,AC50,[1],"15.8 µM [falling, partial curve]"
COC(=O)c1sccc1S(=O)(=O)N(CC(=O)NCc1ccc(F)cc1)c1ccccc1,AC50,[1],"12.6 µM [falling, partial curve]"
O=C(CCNS(=O)(=O)c1ccc(Br)s1)Nc1ccc(Br)cc1,AC50,[1],"3.16 µM [falling, single point]"
CCc1cc2cc(C(=O)N3CCN(Cc4ccccc4)CC3)sc2s1,AC50,[1],"3.98 µM [falling, partial curve]"
COc1cc(NS(=O)(=O)c2ccc(NC(=O)COc3ccc(Cl)cc3Cl)cc2)nc(OC)n1,AC50,[1],"20 µM [falling, partial curve]"
CCOc1ccccc1N(CC)C(=O)Cn1ncc2c1-c1ccccc1OC2,AC50,[1],"39.8 µM [falling, single point]"
CCOc1ccc(NC(=O)CSc2nc(-c3ccccc3)c3cc(OCC)ccc3n2)cc1,AC50,[1],"39.8 µM [falling, single point]"
CCOC(=O)O[C@]1(C(=O)COC(=O)CC)CC[C@@H]2[C@@H]3CCC4=CC(=O)C=C[C@@]4(C)[C@H]3[C@H](O)C[C@]21C,AC50,[1],"3.98 nM [rising, full curve] [measured here: IkB-luc green channel]"
Cc1cc(C)n(-c2nnc(C)n2/N=C/c2ccccc2OCc2ccccc2Cl)n1,AC50,[1],"25.1 µM [falling, partial curve]"
O=C(NCc1ccccc1Cl)C(=O)NCC(c1ccc2c(c1)OCO2)N1CCOCC1 (centres undefined),AC50,[1],"0.0794 µM [falling, full curve, poor fit]"
CCC(CC)C(=O)N1CCc2cc(OC)c(OC)cc2C1COc1ccc2c(C)cc(=O)oc2c1 (centres undefined),AC50,[1],"39.8 µM [falling, single point]"
O=C(NCc1ccccc1Cl)c1cc(-c2ccccc2)n[nH]1,AC50,[1],"6.31 µM [falling, partial curve]"
C=CCOc1ccc(/C(CC)=N/O)c(OC)c1,AC50,[1],"25.1 µM [rising, partial curve]"
O=C(Cn1c2ncccc2c(=O)n1-c1ccccc1)NCc1ccccc1,AC50,[1],"15.8 µM [falling, single point]"
O=C(CS(=O)(=O)c1nc(-c2ccc(Cl)cc2)cn1-c1ccccc1)Nc1cccc(Cl)c1,AC50,[1],"2.51 µM [falling, partial curve]"
Cc1nc(-c2ccccc2)sc1-c1ccc(SCC(=O)Nc2ccccc2)nn1,AC50,[1],"39.8 µM [falling, single point]"
Cc1ccc(NC(=O)c2ccc(F)c(S(=O)(=O)NCCc3ccccc3)c2)cc1F,AC50,[1],"15.8 µM [falling, partial curve]"
Cc1oc(-c2cccc(Br)c2)nc1CN1CCC(C(=O)NCc2ccccc2)CC1,AC50,[1],"39.8 µM [falling, single point]"
Cc1ccc2nc(NC(=O)C3CCCN(S(=O)(=O)c4cccc5nsnc45)C3)sc2c1 (centres undefined),AC50,[1],"5.01 µM [falling, partial curve]"
COc1cccc(CNC(=O)Cc2c(C)c3cc4c(C)coc4cc3oc2=O)c1,AC50,[1],"7.94 µM [falling, full curve]"
COc1cccc(NC(=O)c2csc3c2CCCCC3)c1,AC50,[1],"31.6 µM [falling, single point]"
COc1ccc(-c2nc(CSCC(=O)NCCc3ccc(OC)c(OC)c3)c(C)o2)cc1,AC50,[1],"39.8 µM [falling, single point]"
CC(C)NC(=O)C1=CC(c2ccc3c(c2)OCO3)=NS(=O)(=O)N1C,AC50,[1],"10 µM [falling, partial curve]"
COc1ccc(-c2nnc(Nc3nc4c(OC)cccc4s3)o2)c(OC)c1,AC50,[2],"39.8 µM [rising, single point]"
same,AC50,[3],"10 µM [falling, partial curve]"
Cc1cc(Cl)ccc1NC(=O)CCS(=O)(=O)c1ccc2c(c1)CC(C)N2C(=O)C1CC1 (centres undefined),AC50,[1],"31.6 µM [falling, single point]"
COc1ccc(C2C(C(=O)Nc3cccnc3)=C(C)Nc3nc(-c4ccc(OC)c(OC)c4)nn32)cc1 (centres undefined),AC50,[1],"31.6 µM [falling, single point]"
CCOC(=O)c1c(C)[nH]c(CCC(=O)NCc2cc(Br)ccc2OC)c1C,AC50,[1],"3.16 µM [falling, single point]"
CCc1c(C)nc(Nc2nc(C)c3cc(OC)ccc3n2)[nH]c1=O,AC50,[1],"12.6 µM [falling, partial curve]"
O=C(C1CCC1)N1CCc2cc(S(=O)(=O)NCC3COc4ccccc4O3)ccc21 (centres undefined),AC50,[1],"15.8 µM [falling, partial curve]"
Cc1cccc(Cn2c(N3CCN(c4ccccc4)CC3)nc3c2c(=O)n(C)c(=O)n3C)c1,AC50,[1],"20 µM [falling, partial curve]"

# Reformatted with bars between the fields: entries from further up.
smiles | measurement | setting | value
Cc1nc(-c2ccccc2)sc1-c1ccc(SCC(=O)Nc2ccccc2)nn1 | AC50 | [1] | 39.8 µM [falling, single point]
Cc1ccc(NC(=O)c2ccc(F)c(S(=O)(=O)NCCc3ccccc3)c2)cc1F | AC50 | [1] | 15.8 µM [falling, partial curve]
Cc1oc(-c2cccc(Br)c2)nc1CN1CCC(C(=O)NCc2ccccc2)CC1 | AC50 | [1] | 39.8 µM [falling, single point]
Cc1ccc2nc(NC(=O)C3CCCN(S(=O)(=O)c4cccc5nsnc45)C3)sc2c1 (centres undefined) | AC50 | [1] | 5.01 µM [falling, partial curve]
COc1cccc(CNC(=O)Cc2c(C)c3cc4c(C)coc4cc3oc2=O)c1 | AC50 | [1] | 7.94 µM [falling, full curve]
COc1cccc(NC(=O)c2csc3c2CCCCC3)c1 | AC50 | [1] | 31.6 µM [falling, single point]
COc1ccc(-c2nc(CSCC(=O)NCCc3ccc(OC)c(OC)c3)c(C)o2)cc1 | AC50 | [1] | 39.8 µM [falling, single point]
CC(C)NC(=O)C1=CC(c2ccc3c(c2)OCO3)=NS(=O)(=O)N1C | AC50 | [1] | 10 µM [falling, partial curve]
COc1ccc(-c2nnc(Nc3nc4c(OC)cccc4s3)o2)c(OC)c1 | AC50 | [2] | 39.8 µM [rising, single point]
same | AC50 | [3] | 10 µM [falling, partial curve]
Cc1cc(Cl)ccc1NC(=O)CCS(=O)(=O)c1ccc2c(c1)CC(C)N2C(=O)C1CC1 (centres undefined) | AC50 | [1] | 31.6 µM [falling, single point]
COc1ccc(C2C(C(=O)Nc3cccnc3)=C(C)Nc3nc(-c4ccc(OC)c(OC)c4)nn32)cc1 (centres undefined) | AC50 | [1] | 31.6 µM [falling, single point]
CCOC(=O)c1c(C)[nH]c(CCC(=O)NCc2cc(Br)ccc2OC)c1C | AC50 | [1] | 3.16 µM [falling, single point]
CCc1c(C)nc(Nc2nc(C)c3cc(OC)ccc3n2)[nH]c1=O | AC50 | [1] | 12.6 µM [falling, partial curve]

# From PubChem BioAssay AID445 (National Center for Advancing Translational Sciences (NCATS), 2006)
